Data on 4 compounds can be found in PubChem BioAssay AID1159577 (Broad Institute, 2015).

Structures are written as SMILES. The campaign covered roughly 1,300 compounds. About 240 (18%) were called active. Another 8% or so got no clear call; they are omitted. How the calls were made is not given here. This is a selection; strong and weak results do not stand in their true shares. Measured potencies and affinities stand elsewhere.

The nature of the experiment: HepG2 cell cytotoxicity, dose response, cytotoxicity control, cherry-picked samples (AID 1159577).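 Further: 0% = neutral control wells and -100% = positive control wells.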 The note with it: HepG2 cytotoxicity counterscreen, plate reader; at 19.5 µM (top of the series) unless noted. (Counterscreens check selectivity or assay interference.)
Take `OC[C@H]1Nc2ccc(C#Cc3cccnc3)cc2[C@H]2NCC[C@H]21`: the activity change, negative = cytotoxicity is inactive: 1.97%.
Turning to `Cc1ccc(OC(=O)N(C)C[C@H]2OCc3ccccc3-c3c(n(C)c4ccccc34)C(=O)N([C@H](C)CO)C[C@@H]2C)cc1`, the activity change, negative = cytotoxicity is inactive: 8.6%.
As to `O=C(Cc1ccccn1)N1CCCCN2[C@@H](CO)[C@@H](c3ccc(C#Cc4ccccc4)cc3)[C@@H]2C1`, the activity change, negative = cytotoxicity is inactive: -35% [at 21 µM].
In the case of `O=C(C1CC1)N1C[C@@H]2N[C@H](C1)[C@@H]2c1ccc(-c2ccncc2)cc1`, the activity change, negative = cytotoxicity is inactive: -7.99%.
